In assay [1] the target is CENPC1 (yeast two-hybrid clone from human testis cDNA library) (human) (UniProt Q03188). The experiment in a line: yeast two-hybrid screen, confirmed by simultaneous transformation.
In assay [2] the target is T1, SOX30 (yeast two-hybrid clone from human testis cDNA library) (human) (UniProt O94993).
T1 sequence (looked up): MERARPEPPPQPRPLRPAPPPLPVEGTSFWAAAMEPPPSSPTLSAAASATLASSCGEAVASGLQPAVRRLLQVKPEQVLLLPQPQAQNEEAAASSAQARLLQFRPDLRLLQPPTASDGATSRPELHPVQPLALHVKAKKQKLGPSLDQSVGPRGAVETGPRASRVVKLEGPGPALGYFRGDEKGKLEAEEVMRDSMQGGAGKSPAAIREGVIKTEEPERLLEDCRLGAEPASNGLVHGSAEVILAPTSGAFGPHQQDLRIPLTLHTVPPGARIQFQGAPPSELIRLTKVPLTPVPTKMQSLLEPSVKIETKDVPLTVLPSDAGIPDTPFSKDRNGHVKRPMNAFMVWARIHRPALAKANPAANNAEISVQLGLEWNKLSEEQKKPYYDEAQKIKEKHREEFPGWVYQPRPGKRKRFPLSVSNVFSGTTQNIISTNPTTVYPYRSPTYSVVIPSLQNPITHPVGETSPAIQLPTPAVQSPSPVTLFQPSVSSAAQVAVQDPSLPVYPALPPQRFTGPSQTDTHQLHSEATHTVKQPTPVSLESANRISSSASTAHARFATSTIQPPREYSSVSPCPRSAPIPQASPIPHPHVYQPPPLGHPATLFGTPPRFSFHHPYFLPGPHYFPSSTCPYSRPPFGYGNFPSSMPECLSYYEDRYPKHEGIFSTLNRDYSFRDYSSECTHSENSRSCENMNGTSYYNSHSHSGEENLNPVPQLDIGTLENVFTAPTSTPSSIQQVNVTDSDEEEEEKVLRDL
The description is as above.

The target in assay [3] is T2, HA-tagged Zyxin (UniProt Q15942).
T2 sequence (looked up): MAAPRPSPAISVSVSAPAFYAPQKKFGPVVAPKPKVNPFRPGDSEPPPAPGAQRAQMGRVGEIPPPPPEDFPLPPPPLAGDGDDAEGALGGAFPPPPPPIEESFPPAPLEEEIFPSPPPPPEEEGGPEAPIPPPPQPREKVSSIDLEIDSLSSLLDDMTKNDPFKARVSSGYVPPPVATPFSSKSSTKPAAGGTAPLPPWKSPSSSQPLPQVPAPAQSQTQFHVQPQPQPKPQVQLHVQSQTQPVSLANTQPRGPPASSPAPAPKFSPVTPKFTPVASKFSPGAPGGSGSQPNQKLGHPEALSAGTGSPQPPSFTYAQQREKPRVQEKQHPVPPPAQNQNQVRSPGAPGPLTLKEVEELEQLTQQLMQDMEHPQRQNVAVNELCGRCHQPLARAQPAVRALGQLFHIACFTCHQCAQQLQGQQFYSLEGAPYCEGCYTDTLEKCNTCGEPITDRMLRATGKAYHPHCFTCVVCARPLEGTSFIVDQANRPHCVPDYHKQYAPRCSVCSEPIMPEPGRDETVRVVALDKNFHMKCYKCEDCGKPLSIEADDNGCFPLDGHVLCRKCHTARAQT
The experiment in a line: co-immunoprecipitation: anti-Flag M2 IP, anti-HA immunoblot.

Assay [4] concerns the target T2, HA-tagged Zyxin. The experiment in a line: co-immunoprecipitation from HeLa cells: anti-Flag IP, anti-HA western blot.
The target in assay [5] is HA-tagged CENPC1 (human) (UniProt Q03188). The experiment in a line: co-immunoprecipitation: anti-Flag M2 IP, anti-HA immunoblot.
The target is the same in assay [6]. Briefly: co-immunoprecipitation from COS7 cells: anti-Flag IP, anti-HA western blot. On the technique in general: In western blotting, separated proteins are transferred to a membrane and probed.

Results are given in words; binding and its absence hold for the method and conditions named. For part of these data: In cells and extracts the contact can be indirect. Some entries that bind do so weakly or less than the wild type. For part of these data: Where a sequence is shown, tags or fusion partners need not be part of it.

B1: N-terminal region of NFXL1 (NFXL1-N), yeast two-hybrid bait from pAS2-NFXL1-N (protein, not shown: small tags and cut ends)
chain: MEASWRQVAGGRGRSRGRATAAPSGNGVHLRGAGGGREKGSVGAVPSGTSPGGVATTAAAGSRHSPAGSQALQTTAASELMSQKKFEEIKKANQAAARKLVEEQFSSSSEEGDEDFEGKQGKILANTFITYTTQTDGDTRELERTKQYVNEAFQAGAMTCLICIASVKRNQAVWSCSGCFCIFHMPCIQKWAKDSQFLVSSVTDDDFGKKDCPWPCPKCRFEYKRSETPSRYYCYCGKVEDPPLDPWLVPHSCGQVCEREFKPP
B1: the binding entry in assay [1] and in assay [2] was “binds” throughout.

B2: Flag-tagged ARHCL1 (protein, not shown: small tags and cut ends)
chain: MLTRVKSAVANFMGGIMAGSSGSEHGGGSCGGSDLPLRFPYGRPEFLGLSQDEVECSADHIARPILILKETRRLPWATGYAEVINAGKSTHNEDQASCEVLTVKKKAGAVTSTPNRNSSKRRSSLPNGEGLQLKENSESEGVSCHYWSLFDGHAGSGAAVVASRLLQHHITEQLQDIVDILKNSAVLPPTCLGEEPENTPANSRTLTRAASLRGGVGAPGSPSTPPTRFFTEKKIPHECLVIGALESAFKEMDLQIERERSSYNISGGCTALIVICLLGKLYVANAGDSRAIIIRNGEIIPMSSEFTPETERQRLQYLAFMQPHLLGNEFTHLEFPRRVQRKELGKKMLYRDFNMTGWAYKTIEDEDLKFPLIYGEGKKARVMATIGVTRGLGDHDLKVHDSNIYIKPFLSSAPEVRIYDLSKYDHGSDDVLILATDGLWDVLSNEEVAEAITQFLPNCDPDDPHRYTLAAQDLVMRARGVLKDRGWRISNDRLGSGDDISVYVIPLIHGNKLS
For the molecule B2, the binding entry with HA-tagged Zyxin [3] and with HA-tagged Zyxin [4] was “binds” in each case.

B3: Flag-tagged NFXL1 (protein, not shown: small tags and cut ends)
chain: MEASWRQVAGGRGRSRGRATAAPSGNGVHLRGAGGGREKGSVGAVPSGTSPGGVATTAAAGSRHSPAGSQALQTTAASELMSQKKFEEIKKANQAAARKLVEEQFSSSSEEGDEDFEGKQGKILANTFITYTTQTDGDTRELERTKQYVNEAFQAGAMTCLICIASVKRNQAVWSCSGCFCIFHMPCIQKWAKDSQFLVSSVTDDDFGKKDCPWPCPKCRFEYKRSETPSRYYCYCGKVEDPPLDPWLVPHSCGQVCEREFKPPCGHKCLLLCHPGPCPPCPKMVTTTCYCKKAKPIPRRCSAKEWSCQLPCGQKLLCGQHKCENPCHAGSCQPCPRVSRQKCVCGKKVAERSCASPLWHCDQVCGKTLPCGNHTCEQVCHVGACGECPRSGKRFCPCQKSKFSLPCTEDVPTCGDSCDKVLECGIHRCSQRCHRGPCETCRQEVEKHCRCGKHTKRMPCHKPYLCETKCVKMRDCQKHQCRRKCCPGNCPPCDQNCGRTLGCRNHKCPSVCHRGSCYPCPETVDVKCNCGNTKVTVPCGRERTTRPPKCKEQCSRPPTCHHTSQEKHRCHFGSCPPCHQPCQKVLEKCGHLCPAPCHDQALIKQTGRHQPTGPWEQPSEPAFIQTALPCPPCQVPIPMECLGKHEVSPLPCHAVGPYSCKRVCGRILDCQNHTCMKECHKVTKTDGCTGKNKAGPECLHCEEGCSKSRPLGCLHPCILRCHPGECPPCVQMLRIKCHCKITSLYVECRKITTADVNEKNLLSCCKNQCPKELPCGHRCKEMCHPGECPFNCNQKVKLRCPCKRIKKELQCNKVRENQVSIECDTTCKEMKRKASEIKEAEAKAALEEEKRRQQAELEAFENRLKGRRKKNRKRDEVAVELSLWQKHKHYLISVCGVVVVVFAWYITHDVN
With B3, the binding result with HA-tagged CENPC1 (human) [5] and with HA-tagged CENPC1 (human) [6] was “binds” each time.

These data come from patent US20060281081A1.
